Laboratory results: PubChem BioAssay AID504764 (Drosophila RNAi Screening Center, 2011)

Aim: 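Genome-wide screen for regulators of Notch-driven gene expression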 (primary screen)
Cell system: Drosophila Kc167 cells
Knock-down reagent: long dsRNA against Drosophila genes
Duration: about 5 days (4 days dsRNA, then 24 h after transfection)
Challenge: transfection of constitutively active membrane-tethered Notch lacking the extracellular domain, read 24 h later
Measurement: 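Light from a Notch-responsive E(spl)m3 luciferase reporter under active Notch, with control-promoter and no-Notch reporter wells to normalise; raw counts from paired wells a and b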
Reading the numbers: induced reporter light, run 1, well a and induced reporter light, run 1, well b: higher = more light from the Notch target reporter with active Notch; control promoter light, run 1, well a and control promoter light, run 1, well b: higher = more light from the viral control promoter (cell number, transfection, viability); uninduced reporter light, run 1, well a: higher = more light from the Notch target reporter without active Notch
Active means: 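Wells with low control signal or poorly matching duplicates excluded; duplicates averaged; per source plate, z beyond ±2 for induced/control log2 ratio or beyond ±1.8 for induced/uninduced marks a hit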
Meaning of the calls: active = modifier hit (raised or lowered Notch signal); inactive = not a hit
The screen tested about 22,000 reagents; this is a random part of those that have a named target and a result. Of all reagents, 403 (1.9%) are marked active. 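Unnormalised raw counts per well; ratio z-scores behind the hit calls and whether each hit raises or lowers signal are not deposited.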 Names joined by + are all predicted targets of the reagent. Not given: the amount of reagent.

no.	gene	dsRNA	induced reporter light, run 1, well a	induced reporter light, run 1, well b	control promoter light, run 1, well a	control promoter light, run 1, well b	uninduced reporter light, run 1, well a	call
1	yellow-g	DRSC08575	96635	1.05e5	1.34e5	1.50e5	4385	inactive
2	tyf	DRSC18382	1.18e5	1.39e5	1.86e5	2.24e5	11410	inactive
3	l(3)62Be (retired record)	DRSC08231	82580	94140	1.89e5	1.75e5	7470	inactive
4	EMC7	DRSC07162	1.32e5	85725	1.12e5	1.35e5	7265	inactive
5	CG5002	DRSC06911	93775	94785	2.29e5	2.25e5	9110	inactive
6	Lkr	DRSC09754	3.73e5	3.04e5	4.28e5	4.30e5	20985	inactive
7	CG30031 + deltaTry + gammaTry	DRSC07622	1.35e5	1.25e5	1.72e5	1.77e5	11315	inactive
8	CG6429	DRSC06986	1.58e5	1.13e5	1.28e5	1.54e5	8950	inactive
9	CG15073	DRSC06506	50975	37850	35620	38590	4300	inactive
10	FoxK	DRSC09859	64090	63655	41775	11720	9365	inactive
11	Nxt1	DRSC04630	2.07e5	1.68e5	1.51e5	1.43e5	14215	inactive
12	CG31835 + CG42585	DRSC01412	96230	1.02e5	1.43e5	1.27e5	10740	inactive
13	Mayo	DRSC14300	1.77e5	1.35e5	2.08e5	1.93e5	12440	inactive
14	hng2	DRSC16412	1.15e5	1.40e5	1.38e5	1.08e5	8635	inactive
15	pea	DRSC07120	90775	1.08e5	1.07e5	96830	8700	inactive
16	CG31206	DRSC13388	92600	84670	1.02e5	1.08e5	11478	inactive
17	DEF8	DRSC09840	1.33e5	1.21e5	84395	56595	11750	inactive
18	nerfin-2	DRSC14547	1.13e5	1.04e5	1.16e5	82410	6080	inactive
19	gom	DRSC04690	28535	27855	25420	22795	1945	inactive
20	Psi	DRSC07519	63460	77890	1.62e5	1.77e5	8220	inactive
21	CG10433	DRSC04068	1.95e5	1.83e5	1.77e5	1.89e5	14950	inactive
22	CG12849	DRSC04129	1.67e5	1.31e5	1.63e5	1.55e5	10455	inactive
23	CG6686	DRSC02979	1.77e5	1.70e5	1.35e5	1.55e5	10150	inactive
24	NijA	DRSC10637	1.34e5	1.20e5	1.72e5	1.89e5	6860	inactive
25	Dgk	DRSC05064	28105	32385	38435	25605	3240	inactive
26	Dgk	DRSC05065	67040	92645	1.21e5	1.18e5	3945	inactive
27	Dgk	DRSC06171	1.73e5	1.55e5	1.63e5	1.91e5	14115	inactive
28	Dgk	DRSC06782	2.01e5	1.86e5	2.60e5	2.83e5	23050	inactive
29	Dgk	DRSC22236						inactive
30	Osi10b	DRSC12279	1.04e5	1.03e5	78740	71070	6685	inactive
31	CG5281	DRSC15761	87840	68135	56030	50965	5210	inactive
32	Sk1	DRSC19774	95385	86560	1.35e5	1.33e5	7050	inactive
33	lambdaTry	DRSC06137	1.26e5	1.21e5	1.92e5	1.24e5	10388	inactive
34	Pus1	DRSC15548	1.78e5	1.49e5	1.90e5	1.70e5	10615	inactive
35	CG16775	DRSC10225	2.38e5	2.25e5	2.80e5	2.40e5	11440	inactive
36	Sirt4	DRSC18290	1.50e5	1.32e5	2.42e5	2.49e5	10410	inactive
37	kis	DRSC00521	94250	67270	64710	54075	5740	inactive
38	kis	DRSC00625	1.42e5	1.40e5	1.10e5	86635	9960	inactive
39	kis	DRSC00823	1.83e5	1.95e5	2.53e5	2.24e5	15500	inactive
40	Cog1	DRSC15661	1.37e5	1.19e5	91080	74515	10800	inactive
41	alpha-Est6	DRSC12618	1.29e5	1.05e5	1.15e5	90680	8315	inactive
42	sll	DRSC16271	1.46e5	1.53e5	1.48e5	1.76e5	15320	inactive
43	CR14117	DRSC10121	1.47e5	1.32e5	1.76e5	1.16e5	7250	inactive
44	Hsp26	DRSC11189	78540	1.05e5	64780	28395	8815	inactive
45	CG1273	DRSC08291	1.37e5	1.69e5	2.78e5	2.36e5	13330	inactive
46	HLH4C	DRSC18670	1.95e5	1.87e5	3.92e5	2.93e5	14310	inactive
47	HLH4C	DRSC21322						inactive
48	CG6959	DRSC16151	54735	67655	71025	39090	4345	inactive
49	Ets98B	DRSC16666	28730	28480	23630	24240	2088	inactive
50	CG17105	DRSC02574	1.76e5	1.98e5	1.14e5	1.73e5	23420	inactive

Only “control promoter light, run 1, well a” (6 entries from above):
lambdaTry [DRSC06137]	1.92e5
Pus1 [DRSC15548]	1.90e5
CG16775 [DRSC10225]	2.80e5
Sirt4 [DRSC18290]	2.42e5
kis [DRSC00521]	64710
kis [DRSC00625]	1.10e5
